Experiment [1] concerns the target recombinant CD19 (UniProt P15391). Put plainly: ELISA on recombinant CD19, OD at 405 nm against antibody concentration.
Experiment [2] shares this target. Put plainly: ELISA on recombinant CD19. For orientation: ELISA stands for enzyme-linked immunosorbent assay.

By UniProt entry, the sequences of proteins in these tests, tags left out. Residues count along the entry.
UniProt P15391, residues 20-291: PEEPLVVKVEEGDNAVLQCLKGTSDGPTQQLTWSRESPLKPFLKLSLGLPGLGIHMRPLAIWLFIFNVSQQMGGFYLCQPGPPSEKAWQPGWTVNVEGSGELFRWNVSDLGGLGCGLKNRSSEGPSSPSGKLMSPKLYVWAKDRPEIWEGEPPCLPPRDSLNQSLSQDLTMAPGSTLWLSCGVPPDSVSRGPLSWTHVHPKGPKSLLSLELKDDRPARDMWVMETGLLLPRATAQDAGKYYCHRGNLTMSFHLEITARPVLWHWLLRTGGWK

Results are given in words; binding and its absence hold for the method and conditions named. Some entries that bind do so weakly or less than the wild type.

B1: CD19 Binder 1 (scFv, V domains shown)
VH: EVQLVESGGGLIQPGGSLRLSCAASGFTVSSNYMSWVRQAPGKGLEWVSVIYSGGSTYYADSVKGRFTISRDNSKNTLYLQMNSLRAEDTAVYYCARDGGLDTLYGMDVWGQGTTVTVSS
VL: QSVVTQPPSVSGAPGQRVTISCTGSSSNIGAGYDVHWYQQLPGTAPKLLIYGNSNRPSGVPDRFSGSKSGTSASLAITGLQAEDEADYYCQSYDSSLSGSYVFGTGTKVTVL
For B1, the binding result in experiment [1] and in experiment [2] was “binds” in each case.

B2: CD19 Binder 3 (scFv, V domains shown)
VH: EVQLVQSGAEVKKPGESLKISCKGSGYSFTSYWIGWVRQMPGKGLEWMGIIYPGDSDTRYSPSFQGQVTISADKSISTAYLQWSSLKASDTAMYYCARLPFVGATTGGFDYWGQGTLVTVSS
VL: QSVVTQPASVSGSPGQSITISCTGTSSDVGGYNYVSWYQQHPGKAPKLVIYEVSNRPSGVSNRFSGSKSGNTASLTISGLQAEDEADYYCSSYTSSSTLVFGGGTKLTVL
Turning to B2, the binding result in experiment [1] and in experiment [2] was “binds” in each case.

B3: CD19 Binder 2 (scFv, V domains shown)
VH: EVHLVESGGGLVQPGGSLRLSCAASGFTFSDYYMSWIRQAPGKGLEWVSYISSSGSTTYYADSVKGRFTISRDNAKNSLYLQMNSLRAEDTAVYYCARVEGWSLLDYWGQGTLVTVSS
VL: QSVLTQPPSVSAAPGQKVTMSCSGSSSNIGNNYVSWYQQLPGTAPKLLIYDNNKRPSGIPDRFSGSKSGTSATLGITGLQTGDEADYYCGTWDSSLGAVVFGGGTKVTVL
B3: the binding entry in experiment [1] and in experiment [2] was “binds” each time.

(Values after patent publication US20260217822A1.)
